Article PMC9378658
Like-named read-outs stand apart in the source and are kept apart here. No constants are given. Whether binding was seen depends on the method and setting. In cells and extracts the contact can be indirect. Some results given as binding are weak or reduced against the parent protein; the word gives no strength. Values belong to the molecule of their own block, whether it stands above or below them.

Sequences of proteins named here, by UniProt entry; tags and fusion partners are left off.
UniProt Q9R1E0: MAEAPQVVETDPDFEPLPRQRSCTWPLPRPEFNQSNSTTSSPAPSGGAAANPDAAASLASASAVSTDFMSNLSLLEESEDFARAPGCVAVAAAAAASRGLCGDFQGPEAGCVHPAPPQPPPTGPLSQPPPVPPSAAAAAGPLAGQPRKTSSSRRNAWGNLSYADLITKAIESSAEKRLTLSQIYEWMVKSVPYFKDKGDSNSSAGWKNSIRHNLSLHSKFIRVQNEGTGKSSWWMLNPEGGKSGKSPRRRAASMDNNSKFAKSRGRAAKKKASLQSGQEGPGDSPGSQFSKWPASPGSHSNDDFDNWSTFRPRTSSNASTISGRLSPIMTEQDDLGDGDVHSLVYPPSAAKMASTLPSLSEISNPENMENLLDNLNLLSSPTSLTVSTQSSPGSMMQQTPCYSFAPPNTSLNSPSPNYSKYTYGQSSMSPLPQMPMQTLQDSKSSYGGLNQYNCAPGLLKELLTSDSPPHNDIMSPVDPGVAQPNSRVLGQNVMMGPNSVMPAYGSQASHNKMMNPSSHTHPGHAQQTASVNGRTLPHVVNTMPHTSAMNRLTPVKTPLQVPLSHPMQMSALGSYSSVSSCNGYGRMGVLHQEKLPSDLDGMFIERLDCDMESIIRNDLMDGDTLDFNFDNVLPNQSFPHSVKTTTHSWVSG
UniProt Q8R0K9: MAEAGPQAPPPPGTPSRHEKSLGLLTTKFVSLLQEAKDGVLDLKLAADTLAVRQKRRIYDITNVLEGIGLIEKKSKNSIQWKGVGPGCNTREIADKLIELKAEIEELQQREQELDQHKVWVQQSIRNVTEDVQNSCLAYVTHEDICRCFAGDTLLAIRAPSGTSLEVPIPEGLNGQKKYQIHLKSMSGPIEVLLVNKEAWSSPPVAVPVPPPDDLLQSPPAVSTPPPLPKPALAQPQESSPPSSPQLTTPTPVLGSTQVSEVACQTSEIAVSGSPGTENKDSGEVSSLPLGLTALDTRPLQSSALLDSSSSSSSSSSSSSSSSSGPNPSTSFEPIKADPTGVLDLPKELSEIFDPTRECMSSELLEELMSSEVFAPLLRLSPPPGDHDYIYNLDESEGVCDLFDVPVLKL
UniProt P25322: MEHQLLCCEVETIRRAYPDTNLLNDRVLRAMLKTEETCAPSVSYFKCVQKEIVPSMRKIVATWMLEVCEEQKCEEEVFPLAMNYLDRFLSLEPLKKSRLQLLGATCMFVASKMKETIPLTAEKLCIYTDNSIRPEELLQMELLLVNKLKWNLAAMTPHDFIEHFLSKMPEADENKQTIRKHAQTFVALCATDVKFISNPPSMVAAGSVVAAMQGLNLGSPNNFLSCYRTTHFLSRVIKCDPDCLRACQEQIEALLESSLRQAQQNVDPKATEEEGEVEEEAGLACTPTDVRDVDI
UniProt P61809: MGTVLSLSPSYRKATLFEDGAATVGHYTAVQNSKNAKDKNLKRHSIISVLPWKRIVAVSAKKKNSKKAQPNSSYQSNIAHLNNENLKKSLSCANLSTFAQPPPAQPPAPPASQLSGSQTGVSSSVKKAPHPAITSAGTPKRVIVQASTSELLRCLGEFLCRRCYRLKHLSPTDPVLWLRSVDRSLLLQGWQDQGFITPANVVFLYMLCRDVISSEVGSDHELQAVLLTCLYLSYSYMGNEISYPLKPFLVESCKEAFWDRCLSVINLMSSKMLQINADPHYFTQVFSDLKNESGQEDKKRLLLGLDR
UniProt P46414: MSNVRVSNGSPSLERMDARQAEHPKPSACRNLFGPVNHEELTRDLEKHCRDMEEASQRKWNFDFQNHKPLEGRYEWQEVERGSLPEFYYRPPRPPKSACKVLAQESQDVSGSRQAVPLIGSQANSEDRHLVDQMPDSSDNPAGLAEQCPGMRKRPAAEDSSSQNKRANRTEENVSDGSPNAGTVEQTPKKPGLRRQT

Key:
Assay in all cases: co-IP; endogenous proteins; WM tissue extracts of Nx and Hx mice at P18 in RIPA buffer with 2% Triton-X-100 and 0.2% SDS; 270 µg aliquots incubated overnight with antibody and Agarose A; washed twice in RIPA; immunoblot for the expected co-precipitating protein
[1] = target: T1, Sirt2 (mouse (endogenous in subcortical white matter)) (UniProt Q8VDQ8)
T1 sequence: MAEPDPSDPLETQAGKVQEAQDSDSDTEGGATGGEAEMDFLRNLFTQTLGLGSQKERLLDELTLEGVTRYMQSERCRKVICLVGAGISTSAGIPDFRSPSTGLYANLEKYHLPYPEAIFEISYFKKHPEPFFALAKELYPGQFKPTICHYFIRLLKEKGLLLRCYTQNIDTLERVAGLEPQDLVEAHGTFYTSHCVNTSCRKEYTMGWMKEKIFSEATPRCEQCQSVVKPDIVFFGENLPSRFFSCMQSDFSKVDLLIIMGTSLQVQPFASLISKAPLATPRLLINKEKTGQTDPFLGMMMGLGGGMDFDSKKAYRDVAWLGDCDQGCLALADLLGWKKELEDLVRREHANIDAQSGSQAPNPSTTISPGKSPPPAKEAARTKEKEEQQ

[2] = target: T2, p107 (mouse (endogenous in subcortical white matter)) (UniProt Q64701)
T2 sequence: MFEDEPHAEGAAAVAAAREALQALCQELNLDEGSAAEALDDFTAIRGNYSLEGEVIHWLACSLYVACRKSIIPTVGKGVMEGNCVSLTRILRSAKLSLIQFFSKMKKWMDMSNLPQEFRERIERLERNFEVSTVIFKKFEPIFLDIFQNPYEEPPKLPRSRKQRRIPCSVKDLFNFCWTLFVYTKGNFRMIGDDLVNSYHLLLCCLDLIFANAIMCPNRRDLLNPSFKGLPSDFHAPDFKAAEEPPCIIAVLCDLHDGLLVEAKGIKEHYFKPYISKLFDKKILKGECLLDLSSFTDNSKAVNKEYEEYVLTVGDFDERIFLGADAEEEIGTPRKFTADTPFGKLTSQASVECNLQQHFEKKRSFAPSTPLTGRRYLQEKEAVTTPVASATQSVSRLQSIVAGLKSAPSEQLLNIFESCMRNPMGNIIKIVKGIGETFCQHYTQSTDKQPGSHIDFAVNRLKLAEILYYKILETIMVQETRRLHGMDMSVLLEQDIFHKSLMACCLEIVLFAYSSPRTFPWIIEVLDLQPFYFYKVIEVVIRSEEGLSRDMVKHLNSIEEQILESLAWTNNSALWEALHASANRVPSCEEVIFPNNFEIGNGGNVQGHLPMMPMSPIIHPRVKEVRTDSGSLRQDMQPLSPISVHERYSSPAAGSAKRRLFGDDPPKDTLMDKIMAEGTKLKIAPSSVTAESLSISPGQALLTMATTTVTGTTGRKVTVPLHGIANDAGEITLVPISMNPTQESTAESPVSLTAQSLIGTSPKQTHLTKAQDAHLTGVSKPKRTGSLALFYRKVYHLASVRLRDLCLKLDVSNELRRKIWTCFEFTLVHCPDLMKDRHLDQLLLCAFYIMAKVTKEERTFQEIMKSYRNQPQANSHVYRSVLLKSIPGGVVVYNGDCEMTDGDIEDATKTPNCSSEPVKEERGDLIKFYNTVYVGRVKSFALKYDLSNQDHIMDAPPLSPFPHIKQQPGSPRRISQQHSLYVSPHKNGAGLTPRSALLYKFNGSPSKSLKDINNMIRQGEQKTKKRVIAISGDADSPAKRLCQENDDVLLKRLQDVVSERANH

[3] = target: T3, Cdk4 (mouse (endogenous in subcortical white matter)) (UniProt P30285)
T3 sequence: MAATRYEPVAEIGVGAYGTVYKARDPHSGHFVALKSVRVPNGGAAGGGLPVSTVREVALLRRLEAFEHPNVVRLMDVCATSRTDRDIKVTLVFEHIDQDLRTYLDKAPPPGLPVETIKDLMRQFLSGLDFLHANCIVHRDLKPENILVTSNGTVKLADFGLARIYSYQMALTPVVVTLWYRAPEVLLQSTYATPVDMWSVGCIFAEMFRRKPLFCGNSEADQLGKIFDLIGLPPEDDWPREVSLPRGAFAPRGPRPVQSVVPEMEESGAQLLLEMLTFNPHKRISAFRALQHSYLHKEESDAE

[4] = target: Cdk5 (mouse (endogenous in subcortical white matter)) (UniProt P49615)
[5] = target: T1, Sirt2 (mouse (endogenous in subcortical white matter)); remark: listed apart in the source

binding [1]: binds
Molecule: FoxO1 (from UniProt Q9R1E0 1-652)

binding [2]: binds
Molecule: E2F4 (from UniProt Q8R0K9 1-410)

binding [3]: binds
Molecule: CyclinD1 (from UniProt P25322 1-295)

binding [4]: binds
Molecule: p35 (from UniProt P61809 1-307)

Further lines, the molecule ahead of its results:

Molecule: Cdk5 (from UniProt P49615 1-292)
binding [1]: binds

Molecule: p27^Kip1 (from UniProt P46414 1-197)
binding [1]: binds

B1: p21^Cip1 (protein, UniProt P39689 1-159)
chain: MSNPGDVRPVPHRSKVCRCLFGPVDSEQLRRDCDALMAGCLQEARERWNFDFVTETPLEGNFVWERVRSLGLPKVYLSPGSRSRDDLGGDKRPSTSSALLQGPAPEDHVALSLSCTLVSERPEDSPGGPGTSQGRKRRQTSLTDFYHSKRRLVFCKRKP
binding [5]: binds
